In article PMC3787020:
These are yes or no findings as the source states them, for the method shown. In cells and extracts the contact can be indirect.

By UniProt entry, the sequences of proteins in these tests, tags left out. Residues count along the entry.
UniProt Q14392, residues 20-662: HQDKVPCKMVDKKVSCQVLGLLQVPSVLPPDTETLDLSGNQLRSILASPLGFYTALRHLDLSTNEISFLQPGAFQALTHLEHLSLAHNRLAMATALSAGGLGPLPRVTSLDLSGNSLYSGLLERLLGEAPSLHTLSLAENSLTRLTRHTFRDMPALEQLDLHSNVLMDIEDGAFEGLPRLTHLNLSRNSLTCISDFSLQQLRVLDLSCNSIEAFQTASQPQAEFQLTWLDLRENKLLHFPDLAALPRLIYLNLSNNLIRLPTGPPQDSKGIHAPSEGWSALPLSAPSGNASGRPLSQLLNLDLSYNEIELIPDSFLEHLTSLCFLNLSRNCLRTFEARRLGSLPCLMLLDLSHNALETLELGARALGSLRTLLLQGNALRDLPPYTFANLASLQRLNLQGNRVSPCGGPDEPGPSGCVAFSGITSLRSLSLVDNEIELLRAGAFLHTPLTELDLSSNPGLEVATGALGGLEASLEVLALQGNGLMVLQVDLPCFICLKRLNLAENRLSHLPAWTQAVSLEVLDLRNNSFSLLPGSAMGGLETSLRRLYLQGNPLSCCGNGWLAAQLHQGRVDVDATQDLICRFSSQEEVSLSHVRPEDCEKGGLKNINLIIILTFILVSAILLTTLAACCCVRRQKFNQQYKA
UniProt P09958, residues 108-794: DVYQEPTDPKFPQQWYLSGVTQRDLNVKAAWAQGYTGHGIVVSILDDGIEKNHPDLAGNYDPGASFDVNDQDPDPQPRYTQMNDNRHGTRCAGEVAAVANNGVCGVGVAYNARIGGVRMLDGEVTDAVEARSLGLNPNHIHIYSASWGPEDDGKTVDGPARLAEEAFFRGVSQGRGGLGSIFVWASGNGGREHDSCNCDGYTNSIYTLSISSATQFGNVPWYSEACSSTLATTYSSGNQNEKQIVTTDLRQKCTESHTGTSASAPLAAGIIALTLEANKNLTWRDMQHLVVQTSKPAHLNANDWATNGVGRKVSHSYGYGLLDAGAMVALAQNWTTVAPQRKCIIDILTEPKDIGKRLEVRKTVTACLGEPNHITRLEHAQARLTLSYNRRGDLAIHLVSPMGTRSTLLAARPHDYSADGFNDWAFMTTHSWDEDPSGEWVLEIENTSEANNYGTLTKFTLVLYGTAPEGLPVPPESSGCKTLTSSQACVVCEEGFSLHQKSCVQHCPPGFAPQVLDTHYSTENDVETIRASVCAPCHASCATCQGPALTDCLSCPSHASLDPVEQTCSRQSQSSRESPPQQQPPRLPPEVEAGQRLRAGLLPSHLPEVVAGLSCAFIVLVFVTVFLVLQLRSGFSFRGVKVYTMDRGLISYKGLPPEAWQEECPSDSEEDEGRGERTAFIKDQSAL

Molecular target: GARP (human), lentivirally transduced into human T cells (human) (UniProt Q14392)
Test: co-IP; lysates of cells described in Figure 2 immunoprecipitated with anti-GARP or anti-FURIN antibodies; WB with anti-GARP, anti-TGF-β or anti-FURIN antibodies

**Q.** Which binding does the source give for “FURIN (pro-protein convertase) (from UniProt P09958 108-794) (enzyme)” here?
**A.** no binding
